Drawing on article PMC4132756, this text covers binding for four molecules.

Test [1] has as its target green fluorescent protein-p75 (GFP-p75), Psip1/p75. In words: co-IP; GFP trap (ChromoTek, manufacturer's protocol) of GFP-p75 complexes from stably transduced WT MEFs, GFP cells as control; immunoblot of bound endogenous proteins; 5% input loaded. Background: In western blotting, separated proteins are transferred to a membrane and probed.
The target of test [2] is HA-tagged Psip1 p75 (p75-HA). In words: co-IP; anti-HA antibodies (or control IgG) on Protein A Dynabeads incubated 1 h with nuclear extracts (RIPA buffer with Benzonase) of cells with HA-tagged Psip1 isoforms; 4 washes in RIPA; immunoblot.
The target in test [3] is HA-tagged Psip1 p52 (p52-HA). The description is as above.

These are yes or no findings as the source states them, for the method shown. Binding seen in cells or lysates may run through a third protein. For part of these data: Binding calls can cover weak binding; strength is not graded here.

B1: Bmi1 (protein, UniProt P25916 1-324)
chain: MHRTTRIKITELNPHLMCVLCGGYFIDATTIIECLHSFCKTCIVRYLETSKYCPICDVQVHKTRPLLNIRSDKTLQDIVYKLVPGLFKNEMKRRRDFYAAHPSADAANGSNEDRGEVADEEKRIITDDEIISLSIEFFDQSRLDRKVNKEKPKEEVNDKRYLRCPAAMTVMHLRKFLRSKMDIPNTFQIDVMYEEEPLKDYYTLMDIAYIYTWRRNGPLPLKYRVRPTCKRMKMSHQRDGLTNAGELESDSGSDKANSPAGGVPSTSSCLPSPSTPVQSPHPQFPHISSTMNGTSNSPSANHQSSFASRPRKSSLNGSSATSSG
As for B1, the figures for the binding entry in test [1], in test [2] and in test [3] were “binds”, “binds” and “no binding”, respectively.

B2: Cbx4 (protein, UniProt O55187 1-551)
chain: MELPAVGEHVFAVESIEKKRIRKGRVEYLVKWRGWSPKYNTWEPEENILDPRLLIAFQNRERQEQLMGYRKRGPKPKPLVVQVPTFARRSNVLTGLQDSSADNRAKLELGTQGKGQGHQYELNSKKHHQYQPHSKERSGKPPPPGKSGKYYYQLNSKKHHPYQPDPKMYDLQYQGGHKEAPSPTCPDLGTKSHPPDKWAHGAAAKGYLGAVKPLGGGAGAPGKGSEKGPPNGMTPAPKEAVTGNGIGGKMKIVKNKNKNGRIVIVMSKYMENGMQAVKIKSGEAAEGEARSPSHKKRAAEERHPQGDRTFKKAAGASEEKKAEVPCKRREEEALVSGDAQPQDLGSRKLSPTKEAFGEQPLQLTTKPDLLAWDPARSSHPPAHHHHHHHHHHHHHTVGLNLSHARKRCLSETHGEREPCKKRLTARSISTPTCLGGSPVSEHPANVSPTAASLPQPEVILLDSDLDEPIDLRCVKMRSDAGEPPSTLQVKPEAPAVAAVVAPAPASEKPPAEAQEEPVEPLSEFKPFFGNIIITDVTANCLTVTFKEYVTV
For B2, the binding entry in test [1] is recorded as “binds”.

B3: Rybp (protein, UniProt Q8CCI5 1-228)
chain: MTMGDKKSPTRPKRQAKPAADEGFWDCSVCTFRNSAEAFKCSICDVRKGTSTRKPRINSQLVAQQVAQQYATPPPPKKEKKEKVEKPDKEKPEKDKDISPSVTKKNTNKKTKPKSDILKDPPSEANSIQSANATTKTSETNHTSRPRLKNVDRSTAQQLAVTVGNVTVIITDFKEKTRSSSTSSSTVTSSAGSEQQNQSSSGSESTDKGSSRSSTPKGDMSAVNDESF
As for B3, the binding result in test [1] is “no binding”.

B4: Mel18 (protein, UniProt P23798 1-342)
chain: MHRTTRIKITELNPHLMCALCGGYFIDATTIVECLHSFCKTCIVRYLETNKYCPMCDVQVHKTRPLLSIRSDKTLQDIVYKLVPGLFKDEMKRRRDFYAAYPLTEVPNGSNEDRGEVLEQEKGALGDDEIVSLSIEFYEGVRDREEKKNLTENGDGDKEKTGVRFLRCPAAMTVMHLAKFLRNKMDVPSKYKVEILYEDEPLKEYYTLMDIAYIYPWRRNGPLPLKYRVQPACKRLTLPTVPTPSEGTNTSGASECESVSDKAPSPATLPATSSSLPSPATPSHGSPSSHGPPATHPTSPTPPSTAAGTTTATNGGTSNCLQTPSSTSRGRKMTVNGAPCPP
B4: the binding result in test [1] was “no binding”.
